PubChem BioAssay AID743454 – Peter MacCallum Cancer Centre, 2014
Assay: 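Knock-downs lowering viability or raising caspase 3/7 activity in vorinostat-treated resistant cells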 (primary screen). Cell system: human HCT116-VR colon cancer cells, selected for vorinostat resistance. Knock-down reagent: siRNA pool against human genes, 40 nM siRNA pool. Timing: vorinostat for 24 h, read-out about 72 h after transfection. Treatment: vorinostat at 2.5 µM final. Measured: 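Cell viability by CellTiter-Fluor and caspase 3/7 activity by luminescence, each scaled to mock wells per plate, duplicates averaged, then robust z-scored over all plates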. Direction: viability robust z-score: higher = more viable cells than screen typical; caspase robust z-score: higher = more caspase 3/7 activity than screen typical. Active means: 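Hits are knock-downs in viability class RV1/RV2 or caspase class CA1/CA2, excluding ones that killed cells in the no-drug cell-count arm; hits then retested with single siRNAs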.
This is one part, drawn at random, of about 18,000 reagents tested. Of all reagents, 450 (2.5%) were called active. 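Single biological run; no consistent viability z cut-off exists, so the class columns, not z-scores, define the calls.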

Target gene | viability hit class | caspase hit class | viability robust z-score | caspase robust z-score | call
UBA2 (ubiquitin like modifier activating enzyme 2) | no change | no change | -0.95 | -0.68 | inactive
SETD5 (SET domain containing 5) | no change | no change | 0 | -0.09 | inactive
TMEM258 (transmembrane protein 258) | no change | no change | -1.15 | 1.84 | inactive
WWTR1 (WW domain containing transcription regulator 1) | no change | no change | -0.34 | 0.86 | inactive
OR8A1 (olfactory receptor family 8 subfamily A member 1) | no change | no change | 0.63 | -0.39 | inactive
EFCAB3 (EF-hand calcium binding domain 3) | no change | no change | 0.07 | -0.76 | inactive
PHKG1 (phosphorylase kinase catalytic subunit gamma 1) | no change | no change | -0.57 | -0.43 | inactive
JPH2 (junctophilin 2) | no change | no change | -0.18 | -0.86 | inactive
SPDL1 (spindle apparatus coiled-coil protein 1) | no change | no change | -0.84 | 0.88 | inactive
DCTN2 (dynactin subunit 2) | no change | no change | -0.04 | -0.12 | inactive
IFT88 (intraflagellar transport 88) | no change | no change | 0.88 | -0.44 | inactive
COG6 (component of oligomeric golgi complex 6) | no change | no change | 1.07 | -1.06 | inactive
RPRD1B (regulation of nuclear pre-mRNA domain containing 1B) | no change | no change | 1.12 | -0.25 | inactive
BCL6B (BCL6B transcription repressor) | no change | no change | 1.31 | 0.46 | inactive
CTBP1-DT (CTBP1 divergent transcript) | no change | no change | -0.03 | -0.82 | inactive
MCCC2 (methylcrotonyl-CoA carboxylase subunit 2) | no change | no change | 0.41 | -0.76 | inactive
KNTC1 (kinetochore associated 1) | no change | no change | 0.72 | -0.06 | inactive
RPL5 (ribosomal protein L5) | no change | no change | -3.29 | -1.12 | inactive
RTEL1 (regulator of telomere elongation helicase 1) | no change | no change | -1.15 | 0.55 | inactive
ALDH1A1 (aldehyde dehydrogenase 1 family member A1) | no change | no change | -2.41 | 0.62 | inactive
GJB4 (gap junction protein beta 4) | no change | no change | -0.3 | -0.68 | inactive
H2AJ (H2A.J histone) | no change | no change | 1.27 | 1.47 | inactive
MESD (mesoderm development LRP chaperone) | no change | no change | -0.36 | 0.76 | inactive
HYCC2 (hyccin PI4KA lipid kinase complex subunit 2) | no change | no change | -1.16 | -0.17 | inactive
MGAT4A | no change | no change | 1.86 | -0.75 | inactive
PIGC (phosphatidylinositol glycan anchor biosynthesis class C) | no change | no change | -0.22 | 0.81 | inactive
DRG2 (developmentally regulated GTP binding protein 2) | no change | no change | 0.08 | -0.69 | inactive
PRH1 (proline rich protein HaeIII subfamily 1) | no change | no change | 0.12 | 2.51 | inactive
HTT (huntingtin) | no change | no change | 0.78 | -0.63 | inactive
H3C1 (H3 clustered histone 1) | no change | no change | 0.54 | -0.9 | inactive
PRDM6 (PR/SET domain 6) | no change | no change | 1.51 | -0.23 | inactive
CCDC25 (coiled-coil domain containing 25) | no change | no change | -1.82 | -0.29 | inactive
FREY1 (Frey regulator of sperm-oocyte fusion 1) | no change | no change | 0.56 | 0.38 | inactive
NAA40 (N-alpha-acetyltransferase 40, NatD catalytic subunit) | no change | no change | -2.38 | -0.39 | inactive
RGS9BP (regulator of G protein signaling 9 binding protein) | no change | no change | -0.28 | 1.64 | inactive
CXXC1 (CXXC finger protein 1) | no change | no change | -1.35 | 1.57 | inactive
UNC119B (unc-119 lipid binding chaperone B) | no change | no change | 0.31 | -0.79 | inactive
KIF26A (kinesin family member 26A) | no change | no change | 0.48 | 1.36 | inactive
OTOR (otoraplin) | no change | no change | 0.91 | 0.32 | inactive
